These are yes or no findings as the source states them, for the method shown. Binding seen in cells or lysates may run through a third protein. Some entries that bind do so weakly or less than the wild type. One block for each molecule: values may come before it.
Experiments:
[1] = biological target: T1, Staphylococcal Nuclease and Tudor domain-containing protein (SND1), mouse (mouse (endogenous in βTC3 cells and C57BL/6J pancreas)) (UniProt Q78PY7); experiment: co-IP; 100 μg non-crosslinked nuclear extract of βTC3 or INS-1 832/13 cells; goat α-PDX1, α-SND1 or goat/rabbit IgG overnight at 4°C; Protein A/G PLUS-agarose; washed with PBS; immunoblot for PDX1 and SND1
T1 sequence: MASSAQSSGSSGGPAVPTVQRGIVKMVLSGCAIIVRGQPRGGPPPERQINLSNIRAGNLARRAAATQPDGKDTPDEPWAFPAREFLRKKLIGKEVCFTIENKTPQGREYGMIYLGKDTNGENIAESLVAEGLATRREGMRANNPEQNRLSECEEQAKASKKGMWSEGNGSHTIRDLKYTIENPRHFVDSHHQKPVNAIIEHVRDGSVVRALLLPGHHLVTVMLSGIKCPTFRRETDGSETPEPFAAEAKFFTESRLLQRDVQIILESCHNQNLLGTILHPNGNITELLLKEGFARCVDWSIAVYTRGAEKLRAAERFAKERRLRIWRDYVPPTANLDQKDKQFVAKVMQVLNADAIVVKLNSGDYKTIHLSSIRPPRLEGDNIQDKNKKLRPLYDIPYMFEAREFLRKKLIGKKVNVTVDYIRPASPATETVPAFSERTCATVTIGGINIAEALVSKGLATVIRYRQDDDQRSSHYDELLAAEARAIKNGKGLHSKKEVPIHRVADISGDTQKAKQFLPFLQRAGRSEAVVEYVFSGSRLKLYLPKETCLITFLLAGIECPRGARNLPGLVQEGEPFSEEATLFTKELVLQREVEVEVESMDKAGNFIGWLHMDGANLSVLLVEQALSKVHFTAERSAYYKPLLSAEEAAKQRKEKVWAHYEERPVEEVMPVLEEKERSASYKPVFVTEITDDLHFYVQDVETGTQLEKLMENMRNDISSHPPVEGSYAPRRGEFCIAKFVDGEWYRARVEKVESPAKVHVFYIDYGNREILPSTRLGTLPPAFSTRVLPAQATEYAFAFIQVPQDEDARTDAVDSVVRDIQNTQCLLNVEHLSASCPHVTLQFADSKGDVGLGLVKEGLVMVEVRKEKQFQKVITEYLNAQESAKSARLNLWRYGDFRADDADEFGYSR

The chains behind the UniProt entries cited, without tags or fusion partners.
UniProt P52945: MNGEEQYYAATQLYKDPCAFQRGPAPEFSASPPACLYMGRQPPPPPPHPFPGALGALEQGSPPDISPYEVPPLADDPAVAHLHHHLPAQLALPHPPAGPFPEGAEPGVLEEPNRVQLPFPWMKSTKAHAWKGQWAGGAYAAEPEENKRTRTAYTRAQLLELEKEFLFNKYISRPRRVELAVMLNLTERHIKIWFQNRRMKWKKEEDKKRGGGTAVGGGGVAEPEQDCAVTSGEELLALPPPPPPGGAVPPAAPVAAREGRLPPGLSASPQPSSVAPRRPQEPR
UniProt P52946: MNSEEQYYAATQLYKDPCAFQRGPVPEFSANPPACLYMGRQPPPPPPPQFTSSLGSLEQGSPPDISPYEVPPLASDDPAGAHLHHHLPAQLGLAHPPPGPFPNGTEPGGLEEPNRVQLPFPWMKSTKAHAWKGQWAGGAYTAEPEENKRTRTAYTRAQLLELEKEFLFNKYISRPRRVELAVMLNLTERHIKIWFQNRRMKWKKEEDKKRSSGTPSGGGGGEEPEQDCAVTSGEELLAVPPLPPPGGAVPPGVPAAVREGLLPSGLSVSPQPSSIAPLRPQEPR
UniProt P52947: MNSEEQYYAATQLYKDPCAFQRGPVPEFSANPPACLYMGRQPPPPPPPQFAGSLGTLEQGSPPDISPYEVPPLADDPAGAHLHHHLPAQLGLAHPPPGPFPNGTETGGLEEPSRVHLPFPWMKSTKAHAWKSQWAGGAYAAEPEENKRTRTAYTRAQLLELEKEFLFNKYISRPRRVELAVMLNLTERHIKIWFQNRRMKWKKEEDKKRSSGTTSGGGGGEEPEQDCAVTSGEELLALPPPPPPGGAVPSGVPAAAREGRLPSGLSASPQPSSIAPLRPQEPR
UniProt Q7KZF4: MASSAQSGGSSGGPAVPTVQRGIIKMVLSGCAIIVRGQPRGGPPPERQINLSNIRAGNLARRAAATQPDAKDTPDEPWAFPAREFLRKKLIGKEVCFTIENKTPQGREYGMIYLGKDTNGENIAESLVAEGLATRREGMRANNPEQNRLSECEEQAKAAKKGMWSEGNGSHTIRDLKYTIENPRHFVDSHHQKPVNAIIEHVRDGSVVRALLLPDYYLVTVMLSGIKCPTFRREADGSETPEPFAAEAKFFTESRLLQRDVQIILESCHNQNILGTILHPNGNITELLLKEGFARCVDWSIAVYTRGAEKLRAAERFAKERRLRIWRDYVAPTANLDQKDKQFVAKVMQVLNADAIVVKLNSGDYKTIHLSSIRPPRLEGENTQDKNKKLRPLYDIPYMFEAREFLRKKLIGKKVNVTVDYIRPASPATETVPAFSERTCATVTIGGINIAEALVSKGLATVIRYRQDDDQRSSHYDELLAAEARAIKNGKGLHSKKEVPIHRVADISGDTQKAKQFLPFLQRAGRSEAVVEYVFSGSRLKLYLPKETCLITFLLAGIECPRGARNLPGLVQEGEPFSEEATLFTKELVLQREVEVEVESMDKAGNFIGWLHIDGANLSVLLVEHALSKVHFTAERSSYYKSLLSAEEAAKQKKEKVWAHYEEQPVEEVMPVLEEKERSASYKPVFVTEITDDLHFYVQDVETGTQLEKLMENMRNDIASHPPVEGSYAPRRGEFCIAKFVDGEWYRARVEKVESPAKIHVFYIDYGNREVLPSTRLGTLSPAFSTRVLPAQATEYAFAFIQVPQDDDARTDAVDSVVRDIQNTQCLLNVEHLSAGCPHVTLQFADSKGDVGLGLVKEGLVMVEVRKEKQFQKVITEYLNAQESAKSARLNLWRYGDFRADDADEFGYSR

[2] = biological target: T2, Staphylococcal Nuclease and Tudor domain-containing protein (SND1), rat (rat (endogenous in INS-1 832/13)) (UniProt Q66X93); experiment: as above
T2 sequence: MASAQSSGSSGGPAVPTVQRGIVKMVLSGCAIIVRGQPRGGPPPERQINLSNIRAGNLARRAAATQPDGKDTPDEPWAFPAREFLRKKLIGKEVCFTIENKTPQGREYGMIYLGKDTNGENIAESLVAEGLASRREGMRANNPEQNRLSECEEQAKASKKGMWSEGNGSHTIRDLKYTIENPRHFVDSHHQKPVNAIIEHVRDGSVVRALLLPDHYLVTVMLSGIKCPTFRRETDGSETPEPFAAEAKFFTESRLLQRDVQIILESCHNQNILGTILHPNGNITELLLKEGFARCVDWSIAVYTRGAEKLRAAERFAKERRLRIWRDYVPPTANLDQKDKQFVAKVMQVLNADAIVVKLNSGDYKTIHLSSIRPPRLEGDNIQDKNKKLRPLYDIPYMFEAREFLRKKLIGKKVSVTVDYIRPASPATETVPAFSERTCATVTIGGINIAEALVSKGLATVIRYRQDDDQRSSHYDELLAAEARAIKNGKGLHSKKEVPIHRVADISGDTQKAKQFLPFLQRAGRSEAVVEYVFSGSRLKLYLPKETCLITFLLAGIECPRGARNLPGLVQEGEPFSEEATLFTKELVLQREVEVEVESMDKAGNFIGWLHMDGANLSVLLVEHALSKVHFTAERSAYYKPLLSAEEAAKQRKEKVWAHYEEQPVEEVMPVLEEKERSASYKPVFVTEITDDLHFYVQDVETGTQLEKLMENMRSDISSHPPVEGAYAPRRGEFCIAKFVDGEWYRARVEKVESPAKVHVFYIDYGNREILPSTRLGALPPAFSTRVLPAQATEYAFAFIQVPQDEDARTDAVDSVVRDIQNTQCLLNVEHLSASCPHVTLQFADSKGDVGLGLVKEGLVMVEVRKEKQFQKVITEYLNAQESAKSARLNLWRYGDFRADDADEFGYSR

[3] = biological target: Pancreatic and duodenal homeobox 1 (PDX1), human (human (endogenous in EndoC-βH1 cells and donor pancreas)) (UniProt P52945); experiment: proximity ligation; paraffin-embedded human pancreatic sections from nPOD donors (non-diabetic and T2D, n = 4 each), heat-activated antigen retrieval; goat α-Pdx1 and rabbit α-SND1; proinsulin counterstain; fewer signals in T2D donor β cell nuclei
[4] = biological target: Pancreatic and duodenal homeobox 1 (PDX1), human (human (endogenous in EndoC-βH1 cells and donor pancreas)) (UniProt P52945); experiment: proximity ligation; EndoC-βH1 cells fixed with 4% paraformaldehyde, permeabilized with 0.1% Triton X-100; goat α-Pdx1 and rabbit α-SND1
[5] = biological target: Pancreatic and duodenal homeobox 1 (PDX1), mouse (mouse (endogenous in βTC3 cells and C57BL/6J pancreas)) (UniProt P52946); experiment: co-IP; 100 μg non-crosslinked nuclear extract of βTC3 or INS-1 832/13 cells; goat α-PDX1, α-SND1 or goat/rabbit IgG overnight at 4°C; Protein A/G PLUS-agarose; washed with PBS; immunoblot for PDX1 and SND1
[6] = biological target: Pancreatic and duodenal homeobox 1 (PDX1), mouse (mouse (endogenous in βTC3 cells and C57BL/6J pancreas)) (UniProt P52946); experiment: proximity ligation; cryosections of 12-week-old C57BL/6J mouse pancreas, 1% SDS permeabilization; goat α-Pdx1 and rabbit α-SND1; insulin counterstain
[7] = biological target: Pancreatic and duodenal homeobox 1 (PDX1), rat (rat (endogenous in INS-1 832/13)) (UniProt P52947); experiment: co-IP; 100 μg non-crosslinked nuclear extract of βTC3 or INS-1 832/13 cells; goat α-PDX1, α-SND1 or goat/rabbit IgG overnight at 4°C; Protein A/G PLUS-agarose; washed with PBS; immunoblot for PDX1 and SND1

binding [1]: binds
Molecule: Pancreatic and duodenal homeobox 1 (PDX1), mouse (from UniProt P52946 1-284)

binding [2]: binds
Molecule: Pancreatic and duodenal homeobox 1 (PDX1), rat (from UniProt P52947 1-283)

binding [3]: binds
binding [4]: binds
Molecule: Staphylococcal Nuclease and Tudor domain-containing protein (SND1), human (from UniProt Q7KZF4 1-910)

binding [5]: binds
binding [6]: binds
B1: Staphylococcal Nuclease and Tudor domain-containing protein (SND1), mouse (protein, UniProt Q78PY7 1-910)
chain: MASSAQSSGSSGGPAVPTVQRGIVKMVLSGCAIIVRGQPRGGPPPERQINLSNIRAGNLARRAAATQPDGKDTPDEPWAFPAREFLRKKLIGKEVCFTIENKTPQGREYGMIYLGKDTNGENIAESLVAEGLATRREGMRANNPEQNRLSECEEQAKASKKGMWSEGNGSHTIRDLKYTIENPRHFVDSHHQKPVNAIIEHVRDGSVVRALLLPGHHLVTVMLSGIKCPTFRRETDGSETPEPFAAEAKFFTESRLLQRDVQIILESCHNQNLLGTILHPNGNITELLLKEGFARCVDWSIAVYTRGAEKLRAAERFAKERRLRIWRDYVPPTANLDQKDKQFVAKVMQVLNADAIVVKLNSGDYKTIHLSSIRPPRLEGDNIQDKNKKLRPLYDIPYMFEAREFLRKKLIGKKVNVTVDYIRPASPATETVPAFSERTCATVTIGGINIAEALVSKGLATVIRYRQDDDQRSSHYDELLAAEARAIKNGKGLHSKKEVPIHRVADISGDTQKAKQFLPFLQRAGRSEAVVEYVFSGSRLKLYLPKETCLITFLLAGIECPRGARNLPGLVQEGEPFSEEATLFTKELVLQREVEVEVESMDKAGNFIGWLHMDGANLSVLLVEQALSKVHFTAERSAYYKPLLSAEEAAKQRKEKVWAHYEERPVEEVMPVLEEKERSASYKPVFVTEITDDLHFYVQDVETGTQLEKLMENMRNDISSHPPVEGSYAPRRGEFCIAKFVDGEWYRARVEKVESPAKVHVFYIDYGNREILPSTRLGTLPPAFSTRVLPAQATEYAFAFIQVPQDEDARTDAVDSVVRDIQNTQCLLNVEHLSASCPHVTLQFADSKGDVGLGLVKEGLVMVEVRKEKQFQKVITEYLNAQESAKSARLNLWRYGDFRADDADEFGYSR

binding [7]: binds
B2: Staphylococcal Nuclease and Tudor domain-containing protein (SND1), rat (protein, UniProt Q66X93 1-909)
chain: MASAQSSGSSGGPAVPTVQRGIVKMVLSGCAIIVRGQPRGGPPPERQINLSNIRAGNLARRAAATQPDGKDTPDEPWAFPAREFLRKKLIGKEVCFTIENKTPQGREYGMIYLGKDTNGENIAESLVAEGLASRREGMRANNPEQNRLSECEEQAKASKKGMWSEGNGSHTIRDLKYTIENPRHFVDSHHQKPVNAIIEHVRDGSVVRALLLPDHYLVTVMLSGIKCPTFRRETDGSETPEPFAAEAKFFTESRLLQRDVQIILESCHNQNILGTILHPNGNITELLLKEGFARCVDWSIAVYTRGAEKLRAAERFAKERRLRIWRDYVPPTANLDQKDKQFVAKVMQVLNADAIVVKLNSGDYKTIHLSSIRPPRLEGDNIQDKNKKLRPLYDIPYMFEAREFLRKKLIGKKVSVTVDYIRPASPATETVPAFSERTCATVTIGGINIAEALVSKGLATVIRYRQDDDQRSSHYDELLAAEARAIKNGKGLHSKKEVPIHRVADISGDTQKAKQFLPFLQRAGRSEAVVEYVFSGSRLKLYLPKETCLITFLLAGIECPRGARNLPGLVQEGEPFSEEATLFTKELVLQREVEVEVESMDKAGNFIGWLHMDGANLSVLLVEHALSKVHFTAERSAYYKPLLSAEEAAKQRKEKVWAHYEEQPVEEVMPVLEEKERSASYKPVFVTEITDDLHFYVQDVETGTQLEKLMENMRSDISSHPPVEGAYAPRRGEFCIAKFVDGEWYRARVEKVESPAKVHVFYIDYGNREILPSTRLGALPPAFSTRVLPAQATEYAFAFIQVPQDEDARTDAVDSVVRDIQNTQCLLNVEHLSASCPHVTLQFADSKGDVGLGLVKEGLVMVEVRKEKQFQKVITEYLNAQESAKSARLNLWRYGDFRADDADEFGYSR
